Results taken from patent US20160199469A1, “ONCOLOGY VACCINE” (priority 2013, published 2016).
Some results were stated once for a whole list of compounds, not compound by compound.

These sequences were tested on PBMC from individuals with non-small cell lung cancer (NSCLC) (assay: IFNγ ELISpot after 7 day short-term culture, NSCLC patients (Example 3)). Details: percentage of patients with peptide responses of greater than 500 SFC/million, peptide pools 5 μg/peptide/mL.
Format: cell-based, human
With “EMFLQIYKQGGFLGLSNIKFRPGSVVVQLTLAFREGTINVH (listed as Homo sapiens) [P3825_MUC1]” the responder frequency was under 10%.
Sequence “GAQYRIHTHGVFRGIQDVRRVPGVAPTLVRSASETSEKRPF (listed as Homo sapiens) [P1331_WT1]” has a responder frequency of under 10%.
Work on “HREARPALLTSRLRFIPKPDGLRPIVNMDYVVGARTFRREK [P4616_hTERT]” yielded a responder frequency of over 20%.
Work on “HRLREEILAKFLHWLMSVYVVELLRSFFYVTETTFQKNR (listed as Homo sapiens) [P4540_hTERT]” yielded a responder frequency of over 20%.
“ILESLFRAVITKKVADLVGFLLLKYRAREPVTKAEMLESVIK (listed as Homo sapiens) [P5232_MAGE1]” was tested, and the responder frequency was over 20%.
“MTPGTQSPFFLLLLLTVLTVVTGSGHASSTPGG (listed as Homo sapiens) [P2753_MUC1]” was tested, and the responder frequency was under 10%.
“PARYEFLWGPRALAETSYVKVLEYVIKVSARVRFFFPSLREA (listed as Homo sapiens) [P5400_MAGE1]” gave a responder frequency of over 20%.
“PDGPGGNAGGPGEAGATGGRGPRGAGAARASGPGGGAP (listed as Homo sapiens) [P750-NYESO, used as a negative control peptide]” was tested, and the responder frequency was under 10%.
Work on “RAVRSLLRSHYREVLPLATFVRRLGPQGWRLVQRGDPAAFRA (listed as Homo sapiens) [P4020_hTERT]” yielded a responder frequency of over 20%.
“RGPESRLLEFYLAMPFATPMEAELARRSLAQDAPPLPVPG (listed as Homo sapiens) [P805_NY_ESO1]” was tested, and the responder frequency was over 20%.
“RLLQLHITMPFSSPMEAELVRRILSRDAAPLPRPGAVL (listed as Homo sapiens) [P5525_LAGE1]” was tested, and the responder frequency was over 20%.
In the case of “RTFRREKRAERLTSRVKALFSVLNYERARRPGLLGASVLGLDDI (listed as Homo sapiens) [P4650_hTERT]”, the responder frequency is reported as over 20%.
For “TSSNHSTSPQLSTGVSFFFLSFHISNLQFNSSLEDPST (listed as Homo sapiens) [P3776_MUC1]”, the responder frequency was under 10%.
“YEFLWGPRALVETSYVKVLHHMVKISGGPHISYPPLH (listed as Homo sapiens) [P679_MAGE3]” gave a responder frequency of over 20%.

Same assay, conditions: percentage of patients with peptide responses of greater than 500 SFC/million, peptide pools 5 μg/peptide/mL, listed as P4862_hTERT
“AGIRRDGLLLRLVDDFLLVTPHLTHAKTFLRTLVRGVPEYG (listed as Homo sapiens) [P4862_TERT]” was tested, and the responder frequency was under 10%.
